According to PubChem BioAssay AID540276 (National Center for Advancing Translational Sciences (NCATS), 2011):
The whole screen tested about 300,000 compounds, of which about 5,400 (1.8%) were called active. The inconclusive results got no clear call from the source; some entries with a clear call stand among them for comparison. Calls come from the whole dose curve; tested in HEK293 cells. Where the call is inconclusive, the potency comes from a doubtful curve fit.

Assay: qHTS for inhibitors of binding or entry into cells for Marburg Virus
Conditions: Marburg virus pseudotyped entry inhibition, cell reporter; activity change, negative = inhibition: at 37.8 µM (top of the series) unless noted
% is set by controls: 0 for no effect and ±100 for the full control effect; potency is the fitted concentration of half-maximal effect.

Structure (SMILES) | activity change, negative = inhibition | Potency
CC(=O)Nc1ccc(C(=O)N(C)C(C(=O)Nc2ccc(C)cc2)c2ccccn2)cc1 (centres undefined) | inactive: 10.1% | 
CCOC(=O)CSc1nnc(-c2ccc(S(=O)(=O)N3CCOCC3)cc2)n1-c1ccccc1 |  | inconclusive: 20.6 µM [activator, partial curve, poor fit]
CCOC(=O)c1cc2c(=O)n3ccccc3nc2n(CC2CCCO2)c1=NC(C)=O (centres undefined) |  | inconclusive: 0.891 µM [inhibitor, full curve, poor fit]
CC(C)(C)C(=O)c1cn(Cc2ccccc2)c2ccccc12 |  | inconclusive: 35.5 µM [inhibitor, single point]
O=C(NCCc1ccccc1)c1ccc2c(c1)OCO2 |  | active: 1.26 µM
Cc1noc(NS(=O)(=O)c2ccc(N/C=C/C(=O)c3ccc(F)cc3)cc2)c1C | inactive: -4.93% [at 46.1 µM] | 
Cc1ccc(S(=O)(=O)N2CCN(Cc3ccsc3)CC2)cc1 |  | inconclusive: 31.6 µM [activator, single point]
O=C(CN1CCCCC1)Nc1ccccc1Oc1ccccc1 |  | inconclusive: 11.2 µM [inhibitor, partial curve, poor fit]
Cc1cc(C)nc(N2CCN(C(=O)c3ccc(S(=O)(=O)N4CCCCCC4)cc3)CC2)n1 | inactive: 2.42% [at 46.1 µM] | 
O=C(C1CC1)N1CCc2cc(Br)cc(S(=O)(=O)N3CCOCC3)c21 |  | inconclusive: 32.6 µM [inhibitor, single point]
COC(=O)c1cc(-c2cccc(OC)c2)n[nH]1 |  | inconclusive: 22.4 µM [activator, single point]
COC1=CC(=O)O[C@@H](/C=C/c2ccccc2)C1 | inactive: 18.4% | 
CN1CCN(c2cc([N+](=O)[O-])ccc2Cl)CC1 | inactive: -1.53% | 
O=C(CN1CCN(Cc2ccc(Cl)cc2)CC1)N1CCc2ccccc21 | inactive: -0.97% [at 46.1 µM] | 
CCCCc1ccc(NC(=O)OC)cc1 | inactive: 5.28% | 
COC(=O)Nc1nnc(-c2ccccc2Cl)s1 | inactive: 14.7% | 
CCOc1ccc(CCNC(=O)c2cc3sccc3n2C)cc1OCC |  | active: 7.08 µM
COc1ccc(C(=O)/C=C2\NCC3c4ccccc4CCN3C2=O)cc1 (centres undefined) |  | inconclusive: 0.398 µM [inhibitor, partial curve, poor fit]
CCOC(=O)c1cc(CC)sc1NC(=O)C1CC(=O)NN1Cc1ccccc1 (centres undefined) |  | inconclusive: 31.6 µM [inhibitor, single point]
CS(=O)(=O)c1nc(-c2ccc(Br)cc2)cc(-c2ccccc2)c1C#N |  | inconclusive: 2.91 µM [inhibitor, full curve, poor fit]
Cc1ccc(-c2nnc(CSc3nnc(COc4ccccc4)n3-c3ccc(C)cc3)o2)cc1 |  | inconclusive: 32.6 µM [inhibitor, single point]
O=C(c1ccc2c(c1)OCO2)N1CCCC(c2ccccc2)C1 (centres undefined) |  | inconclusive: 6.31 µM [inhibitor, single point]
Cc1ccc2nc(NC(=O)CN3C(=O)C4CC=CCC4C3=O)sc2c1 (centres undefined) |  | inconclusive: 15.8 µM [inhibitor, single point]
COc1cccc(/C=N/NC(=O)C(=O)Nc2ccccc2OC(F)(F)C(F)F)c1O |  | active: 8.91 µM
CCOc1ccc(CNC(=O)C2CCCN(S(=O)(=O)N(C)c3ccc(F)cc3)C2)cc1OC (centres undefined) | inactive: -19.8% [at 46.1 µM] | 

Structure (SMILES) | activity change, negative = inhibition | Potency
Cc1oc(CC(C)C)cc1C(=O)Nc1ccc(C(=O)O)cc1 | inactive: 16.3% | 
CCN1CCCc2cc(CN(CCN3CCOCC3)C(=S)Nc3cccc(Cl)c3)ccc21 |  | inconclusive: 29.1 µM [inhibitor, single point]
COc1cc(NC(=O)C(F)(F)F)cc(OC)c1 |  | inconclusive: 35.5 µM [activator, single point]
N#C/C(=C/c1ccco1)C(N)=S |  | inconclusive: 6.31 µM [activator, single point]
Cc1ccc(-c2nn(Cc3ccccc3)cc2/C=C/C(=O)O)cc1C | inactive: 11.5% | 
Cc1cc(NC(=O)c2nn(C)c(C)c2[N+](=O)[O-])no1 | inactive: -2.92% | 
CC1CCN(S(=O)(=O)c2ccc(NC(=O)Cc3ccccc3)cc2)CC1 |  | inconclusive: 29.1 µM [inhibitor, single point]
COc1cccc(NC(=S)N2C3CCCC2CC(NC(=O)C2CC2)C3)c1 (centres undefined) | inactive: 2.11% [at 46.1 µM] | 
CN(/C(=N/S(=O)(=O)c1cccs1)c1ccccc1)c1ccccc1 |  | inconclusive: 1.12 µM [activator, single point]
Cc1occc1C(=O)N/N=C/C=C\c1ccccc1[N+](=O)[O-] | inactive: 25.9% [at 46.1 µM] | 
CN(CC(=O)Nc1ccc(F)cc1)C(=O)CN1C(=O)c2ccccc2C1=O | inactive: 11.2% | 
Cc1occc1C(=O)Nc1nnc(C(F)(F)F)s1 | inactive: -3.87% | 
COc1ccc(-c2csc(N(CC3CCCO3)C(=O)c3cccs3)n2)cc1 (centres undefined) |  | inconclusive: 14.6 µM [inhibitor, partial curve]
O=C(CNC(=O)Cc1ccccc1)NCC(=O)OCC(=O)c1ccc(Cl)cc1 |  | inconclusive: 22.4 µM [activator, single point]
O=C(Cn1nnc(-c2ccccc2NC(=O)c2ccccc2)n1)Nc1ccc2c(c1)OCCO2 | inactive: -7.18% | 
CCOc1ccc(Nc2cc(C)nc(-n3nc(C)cc3C)n2)cc1 |  | active: 0.251 µM
O=[N+]([O-])c1ccc(C2(O)CN(c3ccccc3)C3=[N+]2CCS3)cc1 (centres undefined) | inactive: -5.18% [at 46.1 µM] | 
CC12CCC3C(CCC4CC(O)CCC43C)C1CC(O)C2 (centres undefined) |  | inconclusive: 35.5 µM [inhibitor, single point]
O=C(Nc1ccc2oc(-c3ccccc3F)nc2c1)c1ccc2c(c1)OCCO2 |  | inconclusive: 8.2 µM [inhibitor, single point]
CC(NS(=O)(=O)/C=C/c1ccccc1)C(=O)NCCc1ccc(S(N)(=O)=O)cc1 (centres undefined) | inactive: 11.7% [at 46.1 µM] | 
CCOc1ccccc1N1CCN(C(=O)NCc2ccc(Cl)cc2)CC1 |  | inconclusive: 5.01 µM [inhibitor, full curve, poor fit]
Brc1ccc(-c2csc(/N=C/N3CCCC3)n2)cc1 |  | active: 8.91 µM
Cc1ccc(C(=O)c2c(NC(=O)CSc3nnc(N)s3)sc3c2CCCC3)cc1 | inactive: -2.37% | 
CC1CCCCN1CC(=O)c1c[nH]c2ccccc12 (centres undefined) |  | inconclusive: 22.4 µM [activator, partial curve, poor fit]

Entries of single compounds, looked up by structure:
Cc1ccc(-c2nn(Cc3ccccc3)cc2/C=C/C(=O)O)cc1C is listed as activity change, negative = inhibition: inactive: 11.5%
O=C(CNC(=O)Cc1ccccc1)NCC(=O)OCC(=O)c1ccc(Cl)cc1 is listed as Potency: inconclusive: 22.4 µM [activator, single point]
O=C(Nc1ccc2oc(-c3ccccc3F)nc2c1)c1ccc2c(c1)OCCO2 is listed as Potency: inconclusive: 8.2 µM [inhibitor, single point]
Cc1oc(CC(C)C)cc1C(=O)Nc1ccc(C(=O)O)cc1 is listed as activity change, negative = inhibition: inactive: 16.3%
